The source of these data is PubChem BioAssay AID2685 (National Center for Advancing Translational Sciences (NCATS), 2010).

This is one part of the list. The main result of the screen is listed elsewhere. These columns were measured beside it and carry no call. Compounds called inactive in the main read-out are mostly missing here. Potencies come from curve fits of mixed quality, noted in brackets. *1 amine or outer side, *2 acyl side, *3 side chain or, on linkers, in order; H or OH if unused. Where a SMILES comes first, the peptide text is derived from it. Bridges are numbered along the chain shown (N, C = ends). [ ]: non-standard residue; d: D form. ξ: configuration not given here. hSer(Ph(2-I,4-NO2,6-CO)) = O=C([C@H](CCOc1c(I)cc([N+](=O)[O-])cc1C(=O)[*:3])N[*:1])[*:2]; ξD = NC(CC(=O)O)C(=O)O

The nature of this assay: qHTS Assay for Lipid Storage Modulators in Drosophila S3 Cells.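 As to cell number change: cells counted by Cell Tracker Red CMTPX staining in the red channel.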 The note with it: BODIPY lipid droplet fluorescence, 18-24 h; for cell number change: measured here: cell count max response, cells fed with added oleic acid. In short, it runs like this:
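Drosophila S3 cells got compounds at several concentrations plus oleic acid (400 uM solution). Laser-scanning cytometry with 488 nm excitation read lipid droplets at 500-530 nm and cells at 575-640 nm. Percent activity was relative to 20 uM Triacsin C.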

[1] abbreviates: measured here: cell number channel AC50, cells fed with added oleic acid.
Where [2] appears, read: measured here: lipid fluorescence (Fed channel) AC50, cells fed with added oleic acid.

As for `C[C@@H]1NC(=O)[C@H](CC(N)=O)NC(=O)c2cc([N+](=O)[O-])cc(I)c2OCC[C@@H](C(=O)NC(CC(=O)O)C(N)=O)NC1=O` (some centres not stated) (NA[hSer(Ph(2-I,4-NO2,6-CO))][ξD]-NH2; lactam N-3), the cell number change worked out at 46.1%. Besides, the AC50 (commonly the midpoint of the concentration-response curve, whichever way the signal moves) under setting [1] is 18.4 µM [rising, single point]. The concentration at half-maximal activity (AC50) under setting [2] is 23.1 µM [rising, single point].
Regarding `CC(NC(=O)/C(C#N)=C1\N=C(NC(=O)c2cccs2)c2ccccc21)c1ccccc1` (configuration not stated), under setting [2], the concentration at half-maximal activity (AC50) was 0.00517 µM [falling, full curve, poor fit].
As to `CSCC[C@H](NC(=O)[C@H](Cc1ccccc1)n1c(=O)[nH]c2ccccc2c1=O)C(=O)NCC1CCC(C(=O)O)CC1` (some centres not stated), the cell number change is -6.15%.
Consider `CC(C)NC(=S)NN=C1c2ccccc2-c2ccccc21`, for which the cell number change is 21.2%. Also, the AC50 under setting [2] was 2.06 µM [rising, full curve].
`CCOc1ccc(C(=O)Nc2ccc(S(=O)(=O)Nc3cc(C)on3)cc2)cc1`: the cell number change is -3.36%.
Take `Cn1c(=O)[nH]c(=O)c2c1nc(Br)n2CCCc1ccccc1`: the cell number change was found to be 2.78%. Further, the concentration at half-maximal activity (AC50) under setting [2] was 0.231 µM [rising, full curve, poor fit].
Regarding `O=C(NCc1ccc(F)cc1)C1CCN(S(=O)(=O)N2CCCC2)CC1`, the cell number change came out at 21.4%. Further, the AC50 under setting [2] was 2.91 µM [rising, full curve, poor fit].
In the case of `CC(C)CNC(=O)c1ccccc1Oc1ccccc1`, the cell number change was 55.8%. Besides, the AC50 under setting [1] is 20.6 µM [rising, single point]. For the same compound, the AC50 under setting [2] is 20.6 µM [rising, partial curve].
For the compound `Nc1[nH]c(N=NC(=O)c2ccccc2)c2ccccc12`, the cell number change is 27.3%. Further, under setting [2], the AC50 is 1.3 µM [rising, partial curve].
For the compound `CCc1nnc(NC(=O)c2sc3nc4cc(C)ccc4cc3c2N)s1`, the cell number change came out at 150%.
With `Cc1cc(C)c2c(=O)c3c(oc2c1)C(=O)N(CCO)C3c1cccc(O)c1` (configuration not stated), the cell number change turned out to be 8.41%. Besides, the AC50 under setting [2] was 2.59 µM [rising, partial curve].
Turning to `O=C(CCn1nc(-c2ccc(Cl)cc2)ccc1=O)N1CCN(c2ccc(F)cc2)CC1`, the cell number change was -2.13%. Under setting [1], the AC50 is 6.51 µM [rising, single point].
With `CCOC(=O)COc1cc(N)c(Cl)cc1Cl`, the cell number change was -1.76%.
As to `CC(C)c1nnc(SCC(=O)NCCC2=CCCCC2)n1N`, the cell number change was found to be 12.1%. Also, the AC50 under setting [1] was 0.92 µM [falling, full curve]. The AC50 under setting [2] was 6.51 µM [falling, single point].
For the compound `COc1ccc(NC(=O)c2ccc(OCc3c(C)noc3C)c(OC)c2)cn1`, the cell number change worked out at 10.9%. Besides, under setting [2], the AC50 is 0.517 µM [falling, single point].
Turning to `Cc1c(-c2ccc(F)cc2)[n+](=O)c(-c2ccc(F)cc2)c(C)n1[O-]`, the AC50 under setting [1] is 2.59 µM [rising, partial curve, poor fit].
In the case of `C=CC(=O)NN(C)c1ncc(C(F)(F)F)cc1Cl`, the cell number change is -8.27%. In addition, the AC50 under setting [1] is 4.11 µM [falling, partial curve, poor fit].
Turning to `COc1ccccc1C(=O)NCCC(=O)N1CCCCCCC1`, the cell number change was -16.2%.
As for `CCOC(=O)c1c(NC(=O)CN2C(=O)NC3(CCCCC3)C2=O)sc(C)c1-c1ccc(C)cc1`, the cell number change was -17.1%. For the same compound, the AC50 under setting [2] was 20.6 µM [falling, partial curve].
Consider `CCCCn1c(=S)[nH]c2ncccc2c1=O`, for which the cell number change is 6.25%. In addition, under setting [2], the half-maximal activity concentration (AC50) was 14.6 µM [rising, single point].
Consider `CN1CCN(c2ccc([N+](=O)[O-])cc2NC(=O)c2ccco2)CC1`, for which the cell number change was 17.3%. Besides, the AC50 under setting [2] was 1.64 µM [rising, partial curve, poor fit].
On to `COc1ccc(N=Nc2cc(-c3ccccc3)ccc2O)cc1`, for which the cell number change was -4.21%. Under setting [2], the concentration at half-maximal activity (AC50) is 4.11 µM [falling, full curve, poor fit].
Turning to `CCOc1ccc(CN2C(=O)CCC2(C)C(=O)NCc2cccnc2)cc1` (configuration not stated), the cell number change was -61.3%. For the same compound, under setting [1], the AC50 is 25.9 µM [falling, partial curve]. In addition, the AC50 under setting [2] is 23.1 µM [falling, partial curve].
In the case of `C=CCn1c(SCC(=O)N(CCOC)c2c(N)n(CC(C)C)c(=O)[nH]c2=O)nc2ccccc21`, the cell number change was -42.6%. The AC50 under setting [1] was 25.9 µM [falling, single point]. The AC50 under setting [2] was 18.4 µM [falling, single point].
Consider `O=C(Nc1ccc(N2CCCC2)c(Cl)c1)c1ccc(Br)o1`, for which the cell number change was 2.26%. In addition, the concentration at half-maximal activity (AC50) under setting [2] is 1.3 µM [rising, partial curve, poor fit].
For the compound `O=C(COc1ccc(F)cc1)N(Cc1cccc(Br)c1)C1CCS(=O)(=O)C1` (configuration not stated), the cell number change is -17.1%. Also, the AC50 under setting [1] is 0.00517 µM [falling, full curve, poor fit]. For the same compound, the AC50 under setting [2] is 29.1 µM [rising, single point].
`Cc1ccc(C(=O)N/N=C\c2sccc2C)cn1`: the AC50 under setting [2] was 29.1 µM [falling, single point].
As for `COC(=O)c1ccc(C(=O)OC)c(NC(=S)N2CCCC(C)C2)c1` (configuration not stated), the cell number change was 22.1%. In addition, the concentration at half-maximal activity (AC50) under setting [2] is 1.64 µM [rising, full curve, poor fit].
As for `Cc1cccc(C(=O)Oc2ccccc2/C=N/Nc2ccc([N+](=O)[O-])cc2)c1`, the cell number change amounted to 10.7%. For the same compound, the AC50 under setting [2] was 1.64 µM [rising, partial curve].
As for `CCOC(=O)c1cnn(-c2nc(-c3ccc(F)cc3)cs2)c1C(F)(F)F`, the cell number change was -12.2%.
Same read-out and setting: under `Cc1ccccc1N1CC(C(=O)N2CC(C)OC(C)C2)CC1=O` (configuration not stated) stands 9.21%.
On to `Cn1nc(C(F)(F)F)c(/C=N/OCc2c(Cl)cccc2Cl)c1Cl`, for which the cell number change was found to be 6.9%. The AC50 under setting [2] was 29.1 µM [rising, single point].
For the compound `COc1ccc(C2C(C(=O)C(C)(C)C)=C(O)C(=O)N2Cc2ccccc2)cc1` (configuration not stated), the cell number change worked out at 35.1%. The AC50 under setting [1] was 29.1 µM [rising, single point]. Besides, the concentration at half-maximal activity (AC50) under setting [2] is 18.4 µM [rising, partial curve, poor fit].
`COc1ccc2c(c1)cc(C(=O)N[C@@H](CCSC)C(=O)N1CCC[C@H]1C(=O)O)n2C`: the cell number change worked out at 20.8%.
The same measure, in the same setting: the figure for `O=C1c2nc3cc(-c4ccccc4)[nH]n3c(=O)c2CN1Cc1ccccc1` is -16.2%.
Regarding `Cc1cccc(NC(=O)c2cc(N3C(=O)CCC3=O)ccc2Cl)n1`, the cell number change is 4.54%. For the same compound, the AC50 under setting [2] is 20.6 µM [rising, partial curve].
Turning to `NC(=O)c1cccnc1Oc1cccc(Cl)c1`, the cell number change came to 21.6%.
`COc1cccc(NC(=O)CCN2C(=O)c3ccccc3Sc3ncccc32)c1`: the cell number change was -5.5%. Under setting [2], the AC50 is 29.1 µM [rising, single point].
Turning to `O=[N+]([O-])c1cccc(/C=C/c2ccccn2)c1`, the cell number change turned out to be 26.5%. For the same compound, under setting [2], the AC50 was 29.1 µM [rising, single point].
